{"source": "PubChem BioAssay AID1688", "about": "(National Center for Advancing Translational Sciences (NCATS), 2009)", "note": "The campaign covered roughly 220,000 compounds. About 2,400 (1.1%) were called active. This list was built around the results that the source calls inconclusive (neither active nor inactive); the mix of calls is not that of the screen. Calls follow the shape of the dose curve; as a rule, active = well fitted inhibition curve with a large enough effect; inconclusive = small, poorly fitted or top-dose-only effect, or effect the other way; inactive = no such curve, though single readings can be large or run the other way. Potencies beside an inconclusive call are fits to weak or partial responses and may not hold up. % is scaled to controls: 0 for no effect and ±100 for the full control effect; potency is read from the fitted curve at half-maximal effect.", "data": [{"assay": "qHTS Multiplex Assay to Identify Dual Action Probes in a Cell Model of Huntington: Aggregate Formation (GFP); also: nearly all actives have a fitted effect of over 60% in size", "conditions": "PC12 HttQ103-GFP aggregates, Acumen cytometry, 40 h; activity change, negative = inhibition: at 46.1 µM (top of the series)", "procedure,_shortened": "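Aggregate formation scored by laser-scanning cytometer (488 excitation, 500–530 emission) in lysed PC12 cells expressing Q103-GFP after 100 nM tebufenozide induction; library tested in dose series, with ATPLite reagent added in the multiplex.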", "values": [{"molecule": "Cn1ncnc2c(=O)n(C)c(=O)nc1-2", "Potency": "active: 5.01 µM"}, {"molecule": "CN(C)C1(c2nnnn2CCOC(=O)Nc2ccc(Cl)cc2)CCCCC1", "Potency": "inconclusive: 25.1 µM [inhibitor, single point]"}, {"molecule": "O=c1oc2ccccc2n1CSC1=NCCS1", "Potency": "inconclusive: 35.5 µM [inhibitor, single point]"}, {"molecule": "CC1(C)OC(c2ccccc2)=C/C(=C/C=C2C(=O)NC(=S)NC2=O)O1", "Potency": "inconclusive: 35.5 µM [inhibitor, single point]"}, {"molecule": "O=C1C2CCCN2C(c2ccccc2)N1c1ccccn1", "note": "(configuration not stated)", "Potency": "inconclusive: 35.5 µM [inhibitor, single point]"}, {"molecule": "O=c1c2ccccc2nc(SCC2CCCCO2)n1-c1ccccc1", "note": "(configuration not stated)", "Potency": "inconclusive: 3.98 µM [inhibitor, partial curve]"}, {"molecule": "Cn1c(=O)c2c(nc(SCc3ccccc3)n2Cc2ccc(Cl)cc2)n(C)c1=O", "Potency": "inconclusive: 8.91 µM [inhibitor, partial curve]"}, {"molecule": "C=CCn1c(O)c(/C(C)=N/NC(=S)Nc2ccccc2)c(=O)[nH]c1=O", "activity change, negative = inhibition": "inactive: -17.5% [at 9.22 µM]"}, {"molecule": "O=C(c1ccco1)C12CN3CN(CN(C3)C1)C2", "Potency": "inconclusive: 1.26 µM [activator, full curve, poor fit]"}, {"molecule": "CCCCn1c(O)c(C=NC2CC3CCC2(C)C3(C)C)c(=O)[nH]c1=O", "note": "(configuration not stated)", "Potency": "active: 12.6 µM"}, {"molecule": "COc1ccc(OCC(=O)N2CCN(Cc3ccc(SC)cc3)CC2)cc1", "activity change, negative = inhibition": "inactive: -23.7% [at 9.22 µM]"}, {"molecule": "O=C1NC(=O)C(CCc2ccccn2)(Cc2ccc3c(c2)OCO3)C(=O)N1CCc1ccccc1", "note": "(configuration not stated)", "Potency": "inconclusive: 35.5 µM [inhibitor, single point]"}, {"molecule": "O=C1NC(=O)N(c2ccc3c(c2)OCO3)C(=O)/C1=C/c1cccs1", "Potency": "inconclusive: 25.1 µM [inhibitor, single point]"}, {"molecule": "COc1cccc(CN2CCN(C(=O)COc3ccc4ccccc4c3)CC2)c1", "activity change, negative = inhibition": "inactive: 4.45% [at 9.22 µM]"}, {"molecule": "CNc1ccc2oc(C[C@H]3O[C@@]4(CC[C@H]3C)O[C@H]([C@H](C)C(=O)c3ccc[nH]3)[C@H](C)C[C@H]4C)nc2c1C(=O)O", "Potency": "inconclusive: 0.891 µM [inhibitor, full curve]"}, {"molecule": "O=[N+]([O-])c1cc(I)c(O)c(I)c1", "Potency": "inconclusive: 35.5 µM [inhibitor, single point]"}, {"molecule": "COc1ccc(-c2nc(NC(=O)Cn3c(=O)oc4ccccc43)sc2C)cc1", "Potency": "inconclusive: 20 µM [inhibitor, single point]"}, {"molecule": "NC(N)=NN=C(/C=C/c1ccc([N+](=O)[O-])o1)/C=C/c1ccc([N+](=O)[O-])o1", "Potency": "active: 10 µM"}, {"molecule": "O=C(Nc1ccc(Oc2ccc(Cl)cc2)c(Cl)c1)c1cc(I)cc(I)c1O", "Potency": "active: 12.6 µM"}, {"molecule": "COc1cccc2c1C(=O)c1c(O)c3c(c(O)c1C2=O)C[C@@](O)(C(=O)CO)C[C@@H]3O[C@H]1C[C@H](N)[C@H](OC2CCCCO2)[C@H](C)O1", "note": "(some centres not stated)", "Potency": "active: 3.98 µM"}, {"molecule": "COc1ccc(/C=C2/C(=O)NC(=O)N(C3CCCCC3)C2=O)cc1CSc1ccccn1", "Potency": "inconclusive: 20 µM [activator, single point]"}, {"molecule": "COc1cc(CC2C(=O)N(C)C(=O)N(C)C2=O)ccc1OCc1ccccc1", "Potency": "inactive"}, {"molecule": "CCCCCn1c(=O)c(C(=O)Nc2nc(CC(=O)OCC)cs2)c(O)c2ccccc21", "Potency": "inconclusive: 11.2 µM [inhibitor, partial curve]"}, {"molecule": "O=C(c1cc2ccccn2n1)N1CCN(Cc2ccccc2)CC1", "Potency": "inconclusive: 35.5 µM [inhibitor, single point]"}, {"molecule": "CNC(=O)c1cccn(Cc2cc(C(F)(F)F)cc(C(F)(F)F)c2)c1=O", "Potency": "inconclusive: 12.6 µM [inhibitor, single point]"}, {"molecule": "Clc1ccc(-c2nc3ccc(Cl)cn3c2CN2CCOCC2)cc1", "Potency": "inconclusive: 35.5 µM [inhibitor, single point]"}, {"molecule": "O=C(COc1ccccc1)N1CCN(Cc2c[nH]c3ccccc23)CC1", "Potency": "active: 15.8 µM"}, {"molecule": "Clc1ccccc1CN1CCN(c2ccccc2)CC1", "Potency": "inconclusive: 35.5 µM [activator, single point]"}, {"molecule": "CC(C)(C)n1cc(C(=O)c2ccc3ccccc3c2O)cn1", "Potency": "inconclusive: 11.2 µM [inhibitor, partial curve]"}, {"molecule": "CC[n+]1c(/C=C/C=C/c2ccc(N(C)C)cc2)sc2ccccc21", "Potency": "inconclusive: 3.55 µM [inhibitor, single point]"}, {"molecule": "Cc1cccc(OCC(=O)Nc2ccc(C(=O)NCc3cccnc3)cc2)c1", "Potency": "inconclusive: 3.16 µM [inhibitor, partial curve]"}, {"molecule": "CN(C)c1ccc(/C=C2/C(=O)NC(=O)N(Cc3ccco3)C2=O)cc1", "Potency": "inactive"}, {"molecule": "CCN(CC)C(=O)c1ccc(NC(=O)COc2ccc([N+](=O)[O-])cc2Cl)cc1", "Potency": "inactive"}, {"molecule": "COc1ccc(/C=C2\\C(=O)NC(=O)N(Cc3ccccc3)C2=O)c(OC)c1OC", "Potency": "inconclusive: 35.5 µM [activator, single point]"}, {"molecule": "CCCCOP(=O)(c1ccc(N(C)C)cc1)C(Nc1ccccc1)c1ccccc1", "note": "(configuration not stated)", "Potency": "inconclusive: 35.5 µM [inhibitor, single point]"}, {"molecule": "Cc1cc(C(=O)N=Nc2c(O)n(C)c3ccccc23)c(C)o1", "Potency": "inactive"}, {"molecule": "CCOc1ccc(Cn2c(=O)oc3ccc(C)cc32)cc1OC", "Potency": "inconclusive: 35.5 µM [inhibitor, single point]"}, {"molecule": "CCCCC1(CCCC)C(=O)NC(=Nc2cccc(C)c2)NC1=O", "Potency": "inconclusive: 15.8 µM [inhibitor, single point]"}, {"molecule": "NC(=S)N/N=C/c1coc2ccccc2c1=O", "Potency": "inconclusive: 35.5 µM [inhibitor, partial curve]"}, {"molecule": "COc1ccc(NP(=O)(Nc2ccc(OC)cc2)Oc2ccccc2)cc1", "Potency": "inconclusive: 3.55 µM [inhibitor, single point]"}, {"molecule": "C=CCn1c(O)c(C(C)=NCc2ccco2)c(=O)[nH]c1=O", "Potency": "inconclusive: 8.91 µM [activator, partial curve]"}, {"molecule": "O=C(CN1CCCCC1)c1cccc(Br)c1", "Potency": "inactive"}, {"molecule": "COc1ccc2c3c([nH]c2c1)C(C)=NCC3", "Potency": "active: 15.8 µM"}, {"molecule": "CC1CC(OP(O)(=S)c2ccc(N(C)C)cc2NC(=O)c2cccs2)CC(C)(C)C1", "note": "(configuration not stated)", "Potency": "inconclusive: 0.0316 µM [inhibitor, full curve, poor fit]"}, {"molecule": "COc1ccc(C(=O)CN2CCOCC2)cc1F", "Potency": "inconclusive: 5.62 µM [inhibitor, single point]"}, {"molecule": "COc1ccc(/C=C/C2=CCN(C)CC2)cc1", "activity change, negative = inhibition": "inactive: 18.3% [at 9.22 µM]"}, {"molecule": "CC(=Nc1c(C)n(C)n(-c2ccccc2)c1=O)c1c(O)n(Cc2ccccc2)c(=O)[nH]c1=O", "Potency": "inactive"}, {"molecule": "CN1C(=O)C(Cc2c[nH]c3ccccc23)C(=O)N(C)C1=O", "Potency": "inactive"}, {"molecule": "COc1cc2c(cc1OC)C(C(=O)NC(C)C)C1CCCCN1C2=O", "note": "(configuration not stated)", "activity change, negative = inhibition": "inactive: -21.7% [at 9.22 µM]"}, {"molecule": "O=c1c2ccccc2nc(CNCC2CCCO2)n1-c1ccc(F)cc1", "note": "(configuration not stated)", "Potency": "inactive"}, {"molecule": "O=C(Oc1ccc2ccc(OC(=O)N3CCCCCC3)cc2c1)N1CCCCCC1", "Potency": "inconclusive: 3.98 µM [inhibitor, full curve, poor fit]"}, {"molecule": "C[C@@H]1O[C@@H](O[C@H]2C[C@@H](O)[C@]3(CO)[C@H]4[C@H](O)C[C@]5(C)[C@@H](C6=CC(=O)OC6)CC[C@]5(O)[C@@H]4CC[C@]3(O)C2)[C@H](O)[C@H](O)[C@H]1O", "Potency": "inactive"}, {"molecule": "O=C(c1ccccc1)C(CN1CCCC1)c1ccccc1", "note": "(configuration not stated)", "Potency": "inconclusive: 35.5 µM [inhibitor, single point]"}, {"molecule": "O=C1CN=C(c2ccc(Br)cc2)c2c(sc3c2CCCC3)N1CCN1CCCCC1", "Potency": "inconclusive: 15.8 µM [inhibitor, single point]"}, {"molecule": "CC(C)(C)c1ccc(CN2C(=O)CN=C(c3ccccc3)c3ccccc32)cc1", "Potency": "inconclusive: 35.5 µM [inhibitor, single point]"}, {"molecule": "O=C(Nc1ccc(Cl)cc1)Nc1nccs1", "Potency": "inconclusive: 5.62 µM [inhibitor, single point]"}, {"molecule": "O=C(c1ccc2c(c1)OCO2)N1CCC2(CC1)OCCO2", "Potency": "inactive"}, {"molecule": "c1ccc(OCc2ccc(CCCN3CCOCC3)cc2)cc1", "Potency": "inconclusive: 31.6 µM [activator, single point]"}, {"molecule": "O=C(/C=C/c1ccc(F)cc1)NNC(=O)CCN1CCN(Cc2ccccc2)CC1", "Potency": "inconclusive: 6.31 µM [inhibitor, full curve]"}, {"molecule": "O=c1[nH]c(=S)n(-c2ccccc2F)c(O)c1C=Nc1ccc(N2CCOCC2)cc1", "Potency": "inconclusive: 7.94 µM [activator, partial curve]"}, {"molecule": "O=C(c1ccncc1)C12CN3CN(CN(C3)C1)C2", "Potency": "inconclusive: 0.398 µM [activator, partial curve]"}, {"molecule": "Cc1ccc(-c2cc(-c3ccc(C)cc3)[n+](C)o2)cc1", "Potency": "active: 3.16 µM"}, {"molecule": "CCC1CCCCN1P(=O)(c1ccc(C)o1)C(C)(C)C", "note": "(configuration not stated)", "Potency": "inconclusive: 35.5 µM [activator, single point]"}, {"molecule": "CSc1ncc(/C=C2/C(=O)NC(=O)N(c3ccc(C(C)C)cc3)C2=O)cn1", "Potency": "inconclusive: 35.5 µM [activator, single point]"}, {"molecule": "Cc1nn(Cc2ccccc2)c(Cl)c1C(=O)OCC(=O)Nc1cccc2ccccc12", "Potency": "inconclusive: 12.6 µM [activator, single point]"}, {"molecule": "O=C(Cc1ccccc1)N1CCN(CC2CC=CCC2)CC1", "note": "(configuration not stated)", "Potency": "inconclusive: 5.62 µM [activator, single point]"}, {"molecule": "CC1CCCC(C)N1c1nnc(NC(=O)Cn2c(=O)oc3ccccc32)s1", "note": "(configuration not stated)", "Potency": "inconclusive: 35.5 µM [inhibitor, single point]"}]}]}
